# Reference: patent publication US4007201A, “Novel pyrazole derivatives” (Kyorin Pharmaceutical Co. Ltd., priority 1975, dated 1977)
# At least one structure is not confirmed: it was looked up by name or label, or the drawing left a doubt.
# Experiments:
# Type in all cases: in vivo, male Sprague Dawley rats
# [1] = test system: liver glycogen level in rats loaded with glucose; experiment: Liver glycogen level in rats loaded with glucose; conditions: oral in 40% glucose solution; 3 hours
# Protocol: (§1) The animals used for the pharmacological studies were male Sprague Dawley rats exept otherwise noted. 1. Hypoglycemic activity in non-diabetic rats (screening test)
# The rats were fasted for 16 - 18 hours, and then the compound 4 suspended in 40% glucose solution was orally administered (5 ml/kg of the suspension per body weight). Glycogen content in the liver was determined at 3 hours after the administration.
# [2] = test system: serum triglyceride level in alloxan diabetic rats; experiment: Serum triglyceride level in alloxan diabetic rats, 10 consecutive days; conditions: oral
# Protocol: as §1
# (§2) Alloxan diabetic rats were obtained as follows. Namely, 2.5% fresh solution of alloxan (50mg/kg) was injected into the tail vein of male rats, and the rats were daily injected with insulin (1-4 units/day) from the 7th day after the administration of alloxan. The alloxan diabetic rats which were survived for more than 2 months with daily injection of insulin were used. The alloxan diabetic rats were fasted for 24 hours after the last treatment with insulin, and then the compound of the present invention was orally administered. The blood glucose levels were determined by the micro method of Momose before and 2, 4 and 6 hours after the administration.
# (§3) The alloxan diabetic rats which were prepared and then preserved for 6 months with insulin as described in the previous experiment were used.
# [3] = test system: serum FFA level in non-diabetic rats; experiment: Serum free fatty acids (FFA) level in non-diabetic rats at 90 minutes; conditions: 100 mg/kg oral
# Protocol: (§4) These new compounds of the present invention are very useful as anti-diabetic agents, which is supported from the following pharmacological studies. The animals used for the pharmacological studies were male Sprague Dawley rats exept otherwise noted. 1. Hypoglycemic activity in non-diabetic rats (screening test)
# (§5) The rats were fasted for 16-18 hours, and those weighing 130-160g were used. The compound 4 suspended in 1% CMC was orally administered to the fasted rats, and at 90 minutes after administration blood was drawn from the […] vena cava under anesthesia with sodium pentobarbital. The blood glucose level was determined by the method of Momose, and the serum FFA level was determined by the method of Itaya and Ui as described in J. Lipid Res., 6, 16 (1965), respectively.
# [4] = test system: blood glucose level in streptozotocin-diabetic rats; experiment: Hypoglycemic effect in streptozotocin-diabetic rats; conditions: oral; 4 hours
# Protocol: The animals used for the pharmacological studies were male Sprague Dawley rats exept otherwise noted. 1. […]
# The rats were fasted for 16 hours, and then streptozotocin was intravenously injected in a dose of 65 mg/kg. Oral administration of the compound 4 was performed at 48 hours after the injection of streptozotocin. Blood samples were taken at 4 hours after the oral administration, and the blood glucose level in each sample was determined.
# [5] = test system: serum FFA level in alloxan diabetic rats; experiment: Serum FFA level in alloxan diabetic rats, oral administration; conditions: compound 4 at 12.5 and 100 mg/kg, 1.5 and 5 hours
# Protocol: as §4, §2, §3
# [6] = test system: serum FFA level in alloxan diabetic rats; experiment: Serum FFA level in alloxan diabetic rats loaded with much quantity of glucose; conditions: compound 4 12.5 and 100 mg/kg, phenformin 100mg/kg; oral with 2g/kg of glucose; 3 hours
# Protocol: as §4
# Respective dose of the compound 4 (12.5 and 100 mg/kg) together with 2g/kg of glucose was orally administered to the alloxan diabetic rats.
# [7] = test system: serum cholesterol level in alloxan diabetic rats; experiment: Serum cholesterol level in alloxan diabetic rats, 10 consecutive days; conditions: oral
# Protocol: as §4, §2, §3
# [8] = test system: blood glucose level in non-diabetic rats; experiment: Blood glucose level in non-diabetic rats at 90 minutes; conditions: 100 mg/kg oral
# Protocol: as §4, §5
# [9] = test system: serum FFA level in alloxan diabetic rats; experiment: Serum FFA level in alloxan diabetic rats, 10 consecutive days; conditions: oral
# Protocol: as §4, §2, §3
smiles,measurement,setting,value
"[H]/N=C(/N)N/C(=N/[H])NCCc1ccccc1 [Phenformin, phenethylbiguanide, reference compound]",Effect on the liver glycogen level,[1],neither tolbutamide or pnenformin exerted such effect
same,"Effect on serum triglyceride level, 10 days (in words)",[2],increased the serum FFA and triglyceride levels
same,Effect on serum FFA level (in words),[3],did not lower the blood glucose and serum FFA levels
same,Hypoglycemic effect in streptozotocin-diabetic rats (in words),[4],did not have a potent hypoglycemic activity
same,Effect on serum FFA level in alloxan diabetic rats (in words),[5],no suppressive effect on the serum FFA level
same,Effect on serum FFA level (in words),[6],significantly elevated the serum FFA level (p<0.05)
same,"Effect on serum cholesterol level, 10 days (in words)",[7],could not reduce the lipid levels
same,Effect on blood glucose level (in words),[8],did not lower the blood glucose and serum FFA levels
same,"Effect on serum FFA level, 10 days (in words)",[9],increased the serum FFA and triglyceride levels
